Experimental data published in the supplement of paper PMC12542422.
Where a name gives a salt, the structure may show the parent alone. ± gives the standard deviation of the averaged measurements. The list shows a part of the results. These are raw signals, not scaled to a control.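 Ribosome-assembly readouts in HeLa cells were imaged via ENP1 staining, with or without export block, or inducible tagged ribosomal protein reporters. Machine learning classified per-cell signal location versus solvent (DMSO) controls. Hits surpassed the DMSO false-positive mean by five standard deviations and were visually confirmed; three biological replicates.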

test system: HeLa K (ENP1 immunofluorescence, no LMB); test: fraction of cells with nucleolar or nucleolar/nucleoplasmic ENP1 signal (MainHitrate); higher = more cells with nucleolar/nuclear readout signal (for ENP1 -LMB: less RNAPI inhibition; for +LMB ENP1 and RP reporters: stronger nuclear/nucleolar retention, i.e. ribosome biogenesis defect); details: concentration: 1 µM; treatment time: 6 h; ENP1 -LMB; leptomycin B: none

Row | Compound | fraction
1 | O=C(O)/C=C/c1ccc(Cn2ccnc2)cc1 [Ozagrel HCl] | 0.994 ± 0.011
2 | Nc1[nH]cnc2ncnc1-2 [Adenine] | 0.989 ± 0.018
3 | O=C(O)Cc1ccccc1Nc1c(Cl)cccc1Cl [Diclofenac Diethylamine] | 0.979 ± 0.036
4 | C[C@H]1[C@H](NC(=O)/C(=N\OC(C)(C)C(=O)O)c2csc(N)n2)C(=O)N1S(=O)(=O)O [Aztreonam (Azactam, Cayston)] | 0.9979 ± 0.0037
5 | O=C(Nc1c(Cl)cncc1Cl)c1ccc(OC(F)F)c(OCC2CC2)c1 [Roflumilast (Daxas)] | 0.988 ± 0.02
6 | CCN(CC)C(=S)SSC(=S)N(CC)CC [Disulfiram (Antabuse)] | 0.9984 ± 0.0028
7 | S=c1[nH]cnc2nc[nH]c12 [Mercaptopurine] | 0.9982 ± 0.0031
8 | Nc1nc2c(ncn2COCCO)c(=O)[nH]1 [Acyclovir (Aciclovir)] | 0.9965 ± 0.006
9 | C=C1c2c(Cl)ccc(O)c2C(=O)C2=C(O)[C@]3(O)C(=O)C(C(N)=O)=C(O)[C@@H](N(C)C)[C@@H]3[C@@H](O)[C@H]12.O=C(O)c1cc(S(=O)(=O)O)ccc1O [Meclocycline Sulfosalicylate] | 0.986 ± 0.024
10 | CC[C@H](C)C(=O)O[C@H]1C[C@@H](C)C=C2C=C[C@H](C)[C@H](CC[C@@H]3C[C@@H](O)CC(=O)O3)[C@H]21 [Lovastatin (Mevacor)] | 0.99 ± 0.017
11 | O=P(O)(O)C(O)(Cc1cccnc1)P(=O)(O)O [Risedronate sodium] | 0.9982 ± 0.0031
12 | Nc1ccc(O)c(C(=O)O)c1 [Mesalamine (Lialda)] | 0.998 ± 0.0036
13 | O=C(O)c1cc(-c2ccccc2)nc2ccccc12 [Cinchophen] | 0.979 ± 0.036
14 | CCCCC(=O)O[C@]1(C(=O)CO)[C@@H](C)C[C@H]2[C@@H]3CCC4=CC(=O)C=C[C@]4(C)[C@@]3(F)[C@@H](O)C[C@@]21C [Betamethasone valerate (Betnovate)] | 0.9984 ± 0.0027
15 | O=c1oc2cc(O)ccc2s1 [Tioxolone] | 0.987 ± 0.023
16 | CN1C(C(=O)Nc2ccccn2)=C(O)c2ccccc2S1(=O)=O [Piroxicam (Feldene)] | 0.9975 ± 0.0043
17 | CC1(C)S[C@@H]2[C@H](NC(=O)[C@H](NC(=O)N3CCNC3=O)c3ccccc3)C(=O)N2[C@H]1C(=O)O [Azlocillin sodium salt] | 0.983 ± 0.029
18 | CN1CCC[C@H]1c1cccnc1 [Nicotine Ditartrate] | 0.99955 ± 0.00078
19 | CO[C@H]1/C=C/O[C@@]2(C)Oc3c(C)c(O)c4c(O)c(c(/C=N/N5CCN(C)CC5)c(O)c4c3C2=O)NC(=O)/C(C)=C\C=C\[C@H](C)[C@H](O)[C@@H](C)[C@@H](O)[C@@H](C)[C@H](OC(C)=O)[C@@H]1C [Rifampin (Rifadin, Rimactane)] | 0.9989 ± 0.0019
20 | CCOC(=O)C1=C[C@@H](OC(CC)CC)[C@H](NC(C)=O)[C@@H](N)C1 [Oseltamivir phosphate (Tamiflu)] | 0.986 ± 0.025

Single entries from the results shown.
Value for CCOC(=O)C1=C[C@@H](OC(CC)CC)[C@H](NC(C)=O)[C@@H](N)C1 [Oseltamivir phosphate (Tamiflu)] under fraction: 0.986 ± 0.025
Value for S=c1[nH]cnc2nc[nH]c12 [Mercaptopurine] under fraction: 0.9982 ± 0.0031
Value for O=C(O)/C=C/c1ccc(Cn2ccnc2)cc1 [Ozagrel HCl] under fraction: 0.994 ± 0.011

Carrying on:

Row | Compound | fraction
21 | O=S(=O)(O)NC1CCCCC1 [Cyclamic  acid] | 0.992 ± 0.013
22 | CS(=O)(=O)CCNCc1ccc(-c2ccc3ncnc(Nc4ccc(OCc5cccc(F)c5)c(Cl)c4)c3c2)o1 [Lapatinib] | 0.9948 ± 0.0091
23 | Nc1ccc(/N=N/c2ccccc2)c(N)n1 [Phenazopyridine HCl] | 0.985 ± 0.027
24 | COC(c1ccccc1)(c1ccccc1)[C@H](Oc1nc(C)cc(C)n1)C(=O)O [Ambrisentan] | 0.9952 ± 0.0083
25 | Nc1[nH]cnc2ncnc1-2 [Adenine sulfate] | 0.993 ± 0.012
26 | CC(C(=O)O)c1cccc(Oc2ccccc2)c1 (stereo not given) [Fenoprofen calcium] | 0.9943 ± 0.0099
27 | O=C(O)C1(C(=O)O)CCC1.[NH2-].[NH2-].[Pt+2] [Carboplatin] | 0.9983 ± 0.0029
28 | CC[C@@H](CO)NCCN[C@@H](CC)CO [Ethambutol HCl] | 0.993 ± 0.012
29 | CCCCOc1cc(C(=O)OCCN(CC)CC)ccc1N [Oxybuprocaine HCl] | 0.993 ± 0.011
30 | O=C(O)c1ccccc1 [Benzoic acid] | 0.986 ± 0.024
31 | Cc1c(Cl)cccc1Nc1ccccc1C(=O)O [Tolfenamic acid] | 0.9966 ± 0.0058
32 | COc1ccc(CNc2nc(N3CCC[C@H]3CO)ncc2C(=O)NCc2ncccn2)cc1Cl [Avanafil] | 0.993 ± 0.012
33 | CN(C(=O)CN(CCO)CC(=O)N(C)C(C)(C)Cc1ccccc1)C(C)(C)Cc1ccccc1 [Oxethazaine] | 0.907 ± 0.16
34 | CCN(Cc1ccncc1)C(=O)C(CO)c1ccccc1 (stereo not given) [Tropicamide] | 0.994 ± 0.011
35 | CCN1CCN(c2cc3c(cc2F)c(=O)c(C(=O)O)cn3C2CC2)CC1 [Enrofloxacin] | 0.985 ± 0.025
36 | CC(C)(O/N=C(\C(=O)N[C@@H]1C(=O)N2C(C(=O)[O-])=C(C[n+]3ccccc3)CS[C@H]12)c1csc(N)n1)C(=O)O [Ceftazidime Pentahydrate] | 0.9959 ± 0.0071
37 | C[C@@H](O)[C@H]1C(=O)N2C(C(=O)O)=C(S[C@@H]3CN[C@H](C(=O)N(C)C)C3)[C@H](C)[C@H]12 [Meropenem] | 0.9984 ± 0.0027
38 | CCN(CC)CC#CCOC(=O)C(O)(c1ccccc1)C1CCCCC1 (stereo not given) [Oxybutynin (Ditropan)] | 0.9988 ± 0.0021
39 | NC(CO)C(=O)NNCc1ccc(O)c(O)c1O (stereo not given) [Benserazide] | 0.988 ± 0.021
40 | NS(=O)(=O)c1cc(Cl)c(Cl)c(S(N)(=O)=O)c1 [Dichlorphenamide (Diclofenamide)] | 0.991 ± 0.015
